These are yes or no findings as the source states them, for the method shown. Binding calls can cover weak binding; strength is not graded here. Tags and fused reporters may be left off the sequences shown. For part of these data: Binding seen in cells or lysates may run through a third protein.
Legend:
[1] = molecular target: T1, DnaN fused to the Nanoluciferase small subunit (CEPIIlac-smBit-dnaN) (S. pneumoniae) (UniProt O06672); assay: split reporter; split Nanoluciferase in S. pneumoniae cells; C+Y medium, 200 µM IPTG for 1 h, NanoGlo substrate; luminescence relative to the negative control strains R5380 and R5570
T1 sequence: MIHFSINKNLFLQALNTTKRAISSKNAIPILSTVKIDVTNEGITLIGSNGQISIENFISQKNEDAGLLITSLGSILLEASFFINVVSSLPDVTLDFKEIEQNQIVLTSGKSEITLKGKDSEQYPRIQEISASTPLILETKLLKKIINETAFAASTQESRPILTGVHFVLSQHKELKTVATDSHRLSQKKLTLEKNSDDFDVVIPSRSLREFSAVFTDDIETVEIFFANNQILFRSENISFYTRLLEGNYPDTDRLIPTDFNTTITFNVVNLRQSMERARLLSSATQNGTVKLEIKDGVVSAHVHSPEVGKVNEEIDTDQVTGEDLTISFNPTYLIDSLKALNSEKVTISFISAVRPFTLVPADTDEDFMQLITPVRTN

[2] = molecular target: T2, DnaN sliding clamp, Gal4 two-hybrid fusion (S. pneumoniae) (UniProt O06672); assay: two-hybrid; Gal4-based PGAD-C1 and PGBD-C1 fusions; yeast PJ69-4a mated with PJ69-4α; growth of diploid cells after 8 or 20 days at 30°C on synthetic complete medium lacking leucine, uracil and histidine (HIS3 reporter); empty-vector controls
T2 sequence: T1 sequence

[3] = molecular target: RipA toxin (Spr1630), Gal4 two-hybrid fusion (S. pneumoniae) (UniProt Q8CYD6); assay: as above

RipA fused to the Nanoluciferase large subunit (CEPlac-lgbit-ripA) (S. pneumoniae)
binding [1]: binds

RipA toxin (Spr1630), Gal4 two-hybrid fusion (from UniProt Q8CYD6)
binding [2]: binds

B1: DnaN sliding clamp, Gal4 two-hybrid fusion (protein, UniProt O06672 1-378)
chain: T1 sequence
binding [3]: binds

Source: PMC12795458
